Experimental findings from paper doi:10.1101/2025.05.08.652833 are described below.

Protein sequences, listed by entry. Tags and fused reporters are not part of them. Lines headed by an entry give the natural chain unless they say otherwise; changes in a name come on top. Residues count along the entry.
UniProt Q8DIQ1: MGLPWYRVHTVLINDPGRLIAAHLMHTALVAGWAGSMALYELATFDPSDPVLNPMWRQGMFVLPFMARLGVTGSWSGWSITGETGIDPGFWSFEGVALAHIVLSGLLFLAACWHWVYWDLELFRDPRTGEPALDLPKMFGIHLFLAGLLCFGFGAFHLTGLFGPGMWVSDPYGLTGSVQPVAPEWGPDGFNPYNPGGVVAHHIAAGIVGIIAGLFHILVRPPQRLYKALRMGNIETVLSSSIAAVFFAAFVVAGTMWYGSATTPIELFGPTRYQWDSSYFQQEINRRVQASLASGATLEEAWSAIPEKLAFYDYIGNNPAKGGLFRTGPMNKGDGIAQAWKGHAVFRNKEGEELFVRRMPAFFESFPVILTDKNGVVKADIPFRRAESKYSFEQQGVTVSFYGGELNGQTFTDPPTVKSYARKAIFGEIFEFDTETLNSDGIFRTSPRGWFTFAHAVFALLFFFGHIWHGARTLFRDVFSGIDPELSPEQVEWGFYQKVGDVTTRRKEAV
UniProt Q8DIP0: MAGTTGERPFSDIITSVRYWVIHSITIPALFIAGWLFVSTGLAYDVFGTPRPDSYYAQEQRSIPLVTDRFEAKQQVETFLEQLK
UniProt Q8DJ43: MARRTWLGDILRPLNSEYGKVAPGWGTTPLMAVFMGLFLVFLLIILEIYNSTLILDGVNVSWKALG
UniProt P0A431, residues 27-272: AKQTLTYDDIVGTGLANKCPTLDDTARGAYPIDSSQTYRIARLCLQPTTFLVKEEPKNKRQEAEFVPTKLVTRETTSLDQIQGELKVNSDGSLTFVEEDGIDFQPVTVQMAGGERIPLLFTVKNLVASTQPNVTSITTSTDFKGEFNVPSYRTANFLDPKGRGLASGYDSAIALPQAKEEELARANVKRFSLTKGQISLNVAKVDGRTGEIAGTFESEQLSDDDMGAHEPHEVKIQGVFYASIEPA
UniProt Q9F1L5: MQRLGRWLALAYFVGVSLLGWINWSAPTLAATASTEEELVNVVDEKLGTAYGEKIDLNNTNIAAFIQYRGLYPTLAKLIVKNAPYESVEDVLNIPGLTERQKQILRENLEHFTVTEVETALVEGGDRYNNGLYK

Common to all, as to experiment: affinity purification with mass spectrometry
Assay [1] has as its target T1, Twin-Strep-tagged Psb27 (Thermosynechococcus vestitus BP-1) (UniProt Q8DG60).
T1 sequence (chain, lipid-modified N-terminal cysteine (Cmod)): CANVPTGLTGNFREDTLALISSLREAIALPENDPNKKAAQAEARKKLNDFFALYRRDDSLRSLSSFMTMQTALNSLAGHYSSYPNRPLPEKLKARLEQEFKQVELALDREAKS

For assay [2], the target named is T1, Twin-Strep-tagged Psb27 (Thermosynechococcus vestitus BP-1). This is another data set of the same source.
Assay [3] addresses T2, Twin-Strep-tagged Psb27 (Thermosynechococcus vestitus BP-1), Q8DG60.
T2 chain: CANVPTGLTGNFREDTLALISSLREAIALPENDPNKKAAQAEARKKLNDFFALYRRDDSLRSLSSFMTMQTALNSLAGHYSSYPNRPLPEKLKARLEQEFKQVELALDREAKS
The note with it: remark: other sources report otherwise.

Read-outs that look alike come from different tables or passages of the source. These are yes or no findings as the source states them, for the method shown. Binding seen in cells or lysates may run through a third protein. A yes stands for co-enrichment or nearness to the bait. Other partners may have been found. Tags and fused reporters may be left off the sequences shown.

Turning to CP43 (PsbC) (from UniProt Q8DIF8 1-461), the binding entry in assay [1] was “binds”.

For the molecule CP47 (PsbB) (from UniProt Q8DIQ1 1-510), the binding result in assay [1] was “binds”.

With D2 (PsbD) (from UniProt Q8CM25 1-352), the binding entry in assay [1] is reported as “binds”.

Regarding FtsH, in assay [1], the binding result was “binds”.

On to PsbE (from UniProt Q8DIP0 1-84), for which, in assay [1], the binding entry was “binds”.

Turning to PsbH (from UniProt Q8DJ43 1-66), the binding result in assay [1] is given as “binds”.

Regarding PsbO (from UniProt P0A431 27-272), the binding entry in assay [1] is “binds”.

For the molecule PsbU (from UniProt Q9F1L5), in assay [1], the binding entry was “binds”.

B1: PsbZ (protein, UniProt Q8DHJ2 1-62)
chain: MTILFQLALAALVILSFVMVIGVPVAYASPQDWDRSKQLIFLGSGLWIALVLVVGVLNFFVV
As for B1, the binding result in assay [2] is “binds”.

B2: PsbV (protein, UniProt P0A386 27-163)
chain: AELTPEVLTVPLNSEGKTITLTEKQYLEGKRLFQYACASCHVGGITKTNPSLDLRTETLALATPPRDNIEGLVDYMKNPTTYDGEQEIAEVHPSLRSADIFPKMRNLTEKDLVAIAGHILVEPKILGDKWGGGKVYY
As to B2, the binding result in assay [2] is “binds”.

B3: Psb34 (protein, UniProt Q8DMP8 1-56)
chain: MRYTTDEGGRLNNFAIEPKVYQAQPWTPQQKVRAALLVGGGLLLVAGLVAIAVGVS
As to B3, the binding entry in assay [2] was “binds”.

B4: CyanoQ (protein, UniProt Q8DHA2 24-152)
chain: CGGPSATTPPPPTYSELQITRIQDYLRDIEKNAERFADLEVSVAKGDWQEARNIMRGPLGEMLMDMRALNRNLLAKDQPTPTALTRALTDDFLKIDQGADLDSVTVAQEGFREAEADFKAYLNSLPELS
With B4, in assay [2], the binding result is given as “binds”.

B5: Psb28 (protein, UniProt Q8DLJ8 1-116)
chain: MGAMAEIQFIRGINEEVVPDVRLTRARDGSSGQAMFYFDNPKIVQEGNLEVTGMYMVDEEGEIVTRDVNAKFINGQPVAIEATYTMRSPQEWDRFIRFMDRYAASHGLGFQKSENS
As for B5, the binding result in assay [2] is “binds”.

B6: CyanoP, Q8DH84 20-183 (protein)
chain: CSATSGLQAYVDSYDGYEFLYPRGWVQVQVEDPVDVVFHDIIETTENVSVVVNTVASTKSLEELGSPEEVGDRLLRNIIAPSESGRSSALIAATSQKADDKTYYILEYAVTLPGDGNTAQQRHNLSSIAVSRGKVYTLSVSAPEERWPKVEDQFKTIVSSFTVY
modifications: here or on the partner: lipid-modified N-terminal cysteine (Cmod)
Consider B6, for which, in assay [3], the binding result is “binds”.
